# Test results reported in the supplement of paper PMC8728848.
# This is one part of the list.
# What was measured:
# Assay in all cases: glycan array binding signal (z-score within array); higher = stronger binding
# Conditions in all cases: glycan notation: IUPAC condensed, linker removed
# [1] = molecular target: Gal(b1-3)[Fuc(a1-4)]GlcNAc(b1-3)Gal(b1-4)GlcNAc
# Summary of the method: (§1)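 From the Consortium for Functional Glycomics database, 3228 arrays were curated, keeping only those whose protein sequence was available. Binding is given as a within-array Z-score averaged across arrays sharing a protein sequence and across linkers. Negative Z-scores can be read as non-binding.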
# [2] = molecular target: Gal(b1-3)[Fuc(a1-4)]GlcNAc(b1-3)Gal(b1-4)[Fuc(a1-3)]GlcNAc
# Summary of the method: as §1
# [3] = molecular target: Gal(b1-3)[GlcNAc(b1-6)]GalNAc
# Summary of the method: as §1
# [4] = molecular target: Gal(b1-3)[Neu5Ac(a2-6)]GalNAc
# Summary of the method: as §1
# [5] = molecular target: Gal(b1-3)[Neu5Ac(a2-6)]GlcNAc(b1-6)Gal(b1-4)Glc
# Summary of the method: as §1
# [6] = molecular target: Gal(b1-3)[Neu5Ac(b2-6)]GalNAc
# Summary of the method: as §1
# Gal(b1-4)Gal = molecular target: Gal(b1-4)Gal
# Summary of the method: as §1
# [7] = molecular target: Gal(b1-4)GalNAc(a1-3)[Fuc(a1-2)]Gal(b1-4)GlcNAc
# Summary of the method: as §1
# [8] = molecular target: Gal(b1-4)GalNAc(b1-3)[Fuc(a1-2)]Gal(b1-4)GlcNAc
# Summary of the method: as §1
# Gal(b1-4)Glc = molecular target: Gal(b1-4)Glc
# Summary of the method: as §1
# Gal(b1-4)Glc6S = molecular target: Gal(b1-4)Glc6S
# Summary of the method: as §1
# Gal(b1-4)GlcNAc = molecular target: Gal(b1-4)GlcNAc
# Summary of the method: as §1
# [9] = molecular target: Gal(b1-4)GlcNAc(a1-6)Gal(b1-4)GlcNAc
# Summary of the method: as §1
# Gal(b1-4)GlcNAc(b1-2)Man = molecular target: Gal(b1-4)GlcNAc(b1-2)Man
# Summary of the method: as §1
# [10] = molecular target: Gal(b1-4)GlcNAc(b1-2)Man(a1-3)Man(b1-4)GlcNAc(b1-4)GlcNAc
# Summary of the method: as §1
# [11] = molecular target: Gal(b1-4)GlcNAc(b1-2)Man(a1-3)[Gal(b1-4)GlcNAc(b1-2)Man(a1-6)]Man(b1-4)GlcNAc(b1-4)GlcNAc
# Summary of the method: as §1
# [12] = molecular target: Gal(b1-4)GlcNAc(b1-2)Man(a1-3)[Gal(b1-4)GlcNAc(b1-2)Man(a1-6)]Man(b1-4)GlcNAc(b1-4)[Fuc(a1-6)]GlcNAc
# Summary of the method: as §1
# [13] = molecular target: Gal(b1-4)GlcNAc(b1-2)Man(a1-3)[Gal(b1-4)GlcNAc(b1-2)][GlcNAc(b1-4)]Man(b1-4)GlcNAc(b1-4)GlcNAc
# Summary of the method: as §1
# [14] = molecular target: Gal(b1-4)GlcNAc(b1-2)Man(a1-3)[GlcNAc(b1-2)Man(a1-6)]Man(b1-4)GlcNAc(b1-4)GlcNAc
# Summary of the method: as §1
# [15] = molecular target: Gal(b1-4)GlcNAc(b1-2)Man(a1-3)[Man(a1-6)]Man(b1-4)GlcNAc(b1-4)GlcNAc
# Summary of the method: as §1
# [16] = molecular target: Gal(b1-4)GlcNAc(b1-2)Man(a1-6)Man(b1-4)GlcNAc(b1-4)GlcNAc
# Summary of the method: as §1
# [17] = molecular target: Gal(b1-4)GlcNAc(b1-2)Man(a1-6)[GlcNAc(b1-2)Man(a1-3)]Man(b1-4)GlcNAc(b1-4)GlcNAc
# Summary of the method: as §1
# [18] = molecular target: Gal(b1-4)GlcNAc(b1-2)Man(a1-6)[Man(a1-3)]Man(b1-4)GlcNAc(b1-4)GlcNAc
# Summary of the method: as §1
# [19] = molecular target: Gal(b1-4)GlcNAc(b1-2)[Gal(b1-4)GlcNAc(b1-4)]Man(a1-3)[Gal(b1-4)GlcNAc(b1-2)Man(a1-6)]Man(b1-4)GlcNAc(b1-4)GlcNAc
# Summary of the method: as §1
# [20] = molecular target: Gal(b1-4)GlcNAc(b1-2)[Gal(b1-4)GlcNAc(b1-4)]Man(a1-3)[Gal(b1-4)GlcNAc(b1-2)[Gal(b1-4)GlcNAc(b1-6)]Man(a1-6)]Man(b1-4)GlcNAc(b1-4)GlcNAc
# Summary of the method: as §1
# [21] = molecular target: Gal(b1-4)GlcNAc(b1-2)[Gal(b1-4)GlcNAc(b1-4)]Man(a1-3)[GlcNAc(b1-4)][Gal(b1-4)GlcNAc(b1-2)Man(a1-6)]Man(b1-4)GlcNAc(b1-4)GlcNAc
# Summary of the method: as §1
# [22] = molecular target: Gal(b1-4)GlcNAc(b1-2)[Gal(b1-4)GlcNAc(b1-4)]Man(a1-3)[GlcNAc(b1-4)][Gal(b1-4)GlcNAc(b1-2)[Gal(b1-4)GlcNAc(b1-6)]Man(a1-6)]Man(b1-4)GlcNAc(b1-4)GlcNAc
# Summary of the method: as §1
# [23] = molecular target: Gal(b1-4)GlcNAc(b1-2)[Gal(b1-4)GlcNAc(b1-6)]Man(a1-6)[Gal(b1-4)GlcNAc(b1-2)Man(a1-3)]Man(b1-4)GlcNAc(b1-4)GlcNAc
# Summary of the method: as §1
# [24] = molecular target: Gal(b1-4)GlcNAc(b1-2)[Gal(b1-4)GlcNAc(b1-6)]Man(a1-6)[GlcNAc(b1-4)][Gal(b1-4)GlcNAc(b1-2)Man(a1-3)]Man(b1-4)GlcNAc(b1-4)GlcNAc
# Summary of the method: as §1
# [25] = molecular target: Gal(b1-4)GlcNAc(b1-3)Gal(b1-3)GlcNAc
# Summary of the method: as §1
# [26] = molecular target: Gal(b1-4)GlcNAc(b1-3)Gal(b1-4)Glc
# Summary of the method: as §1
# [27] = molecular target: Gal(b1-4)GlcNAc(b1-3)Gal(b1-4)GlcNAc
# Summary of the method: as §1
# [28] = molecular target: Gal(b1-4)GlcNAc(b1-3)Gal(b1-4)GlcNAc(b1-3)Gal(b1-4)GlcNAc
# Summary of the method: as §1
# [29] = molecular target: Gal(b1-4)GlcNAc(b1-3)Gal(b1-4)[Fuc(a1-3)GlcNAc(b1-6)]Gal(b1-4)Glc
# Summary of the method: as §1
# [30] = molecular target: Gal(b1-4)GlcNAc(b1-3)Gal(b1-4)[Fuc(a1-3)]GlcNAc(b1-3)Gal(b1-4)[Fuc(a1-3)]GlcNAc
# Summary of the method: as §1
# [31] = molecular target: Gal(b1-4)GlcNAc(b1-3)GalNAc
# Summary of the method: as §1
# [32] = molecular target: Gal(b1-4)GlcNAc(b1-3)[Gal(b1-4)GlcNAc(b1-6)]Gal(b1-4)GlcNAc
# Summary of the method: as §1
# [33] = molecular target: Gal(b1-4)GlcNAc(b1-3)[Gal(b1-4)GlcNAc(b1-6)]GalNAc
# Summary of the method: as §1
# [34] = molecular target: Gal(b1-4)GlcNAc(b1-3)[GlcNAc(b1-6)]Gal(b1-4)GlcNAc
# Summary of the method: as §1
# [35] = molecular target: Gal(b1-4)GlcNAc(b1-6)Gal(b1-4)GlcNAc
# Summary of the method: as §1
# [36] = molecular target: Gal(b1-4)GlcNAc(b1-6)GalNAc
# Summary of the method: as §1
# [37] = molecular target: Gal(b1-4)GlcNAc(b1-6)[Gal(b1-3)]GalNAc
# Summary of the method: as §1
# Gal(b1-6)Gal = molecular target: Gal(b1-6)Gal
# Summary of the method: as §1
# Gal3S(b1-3)GalNAc = molecular target: Gal3S(b1-3)GalNAc
# Summary of the method: as §1
# Gal3S(b1-3)GlcNAc = molecular target: Gal3S(b1-3)GlcNAc
# Summary of the method: as §1
binder,measurement,setting,value
"Intelectin 1 (Homo sapiens), Q8WWA0 (protein) MNQLSFLLFLIATTRGWSTDEANTYFKEWTCSSSPSLPRSCKEIKDECPSAFDGLYFLRTENGVIYQTFCDMTSGGGGWTLVASVHENDMRGKCTVGDRWSSQQGSKAVYPEGDGNWANYNTFGSAEAATSDDYKNPGYYDIQAKDLGIWHVPNKSPMQHWRNSSLLRYRTDTGFLQTLGHNLFGIYQKYPVKYGEGKCWTDNGPVIPVVYDFGDAQKTASYYSPYGQREFTAGFVQFRVFNNERAANALCAGMRVTGCNTEHHCIGGGGYFPEASPQQCGDFSGFDWSGYGTHVGYSSSREITEAAVLLFYR",glycan array binding signal (z-score),[1],1.33
same,glycan array binding signal (z-score),[2],0.076
same,glycan array binding signal (z-score),[3],0.319
same,glycan array binding signal (z-score),[4],0.121
same,glycan array binding signal (z-score),[5],0.303
same,glycan array binding signal (z-score),[6],2.22
same,glycan array binding signal (z-score),Gal(b1-4)Gal,0.906
same,glycan array binding signal (z-score),[7],0.068
same,glycan array binding signal (z-score),[8],-0.176
same,glycan array binding signal (z-score),Gal(b1-4)Glc,-0.284
same,glycan array binding signal (z-score),Gal(b1-4)Glc6S,-0.101
same,glycan array binding signal (z-score),Gal(b1-4)GlcNAc,0.029
same,glycan array binding signal (z-score),[9],0.254
same,glycan array binding signal (z-score),Gal(b1-4)GlcNAc(b1-2)Man,0.889
same,glycan array binding signal (z-score),[10],1.08
same,glycan array binding signal (z-score),[11],-0.296
same,glycan array binding signal (z-score),[12],0.931
same,glycan array binding signal (z-score),[13],0.605
same,glycan array binding signal (z-score),[14],0.616
same,glycan array binding signal (z-score),[15],-0.062
same,glycan array binding signal (z-score),[16],0.389
same,glycan array binding signal (z-score),[17],-0.009
same,glycan array binding signal (z-score),[18],-0.442
same,glycan array binding signal (z-score),[19],-0.421
same,glycan array binding signal (z-score),[20],0.453
same,glycan array binding signal (z-score),[21],0.186
same,glycan array binding signal (z-score),[22],0.411
same,glycan array binding signal (z-score),[23],-0.084
same,glycan array binding signal (z-score),[24],-0.523
same,glycan array binding signal (z-score),[25],0.961
same,glycan array binding signal (z-score),[26],0.614
same,glycan array binding signal (z-score),[27],-0.221
same,glycan array binding signal (z-score),[28],0.544
same,glycan array binding signal (z-score),[29],0.487
same,glycan array binding signal (z-score),[30],0.206
same,glycan array binding signal (z-score),[31],-0.371
same,glycan array binding signal (z-score),[32],-0.483
same,glycan array binding signal (z-score),[33],0.005
same,glycan array binding signal (z-score),[34],0.288
same,glycan array binding signal (z-score),[35],0.484
same,glycan array binding signal (z-score),[36],-0.433
same,glycan array binding signal (z-score),[37],-0.064
same,glycan array binding signal (z-score),Gal(b1-6)Gal,-0.348
same,glycan array binding signal (z-score),Gal3S(b1-3)GalNAc,-0.197
same,glycan array binding signal (z-score),Gal3S(b1-3)GlcNAc,-0.481
